The list shows a part of the results.
Experiments:
Assay in all cases: log2 fold change, soluble protein after heating vs DMSO (PISA); higher = thermal stabilisation; K562 lysate, 10 uM; active = over 0.2 and 3.5 SD of the protein, either way, in both replicates (recomputed)
erlotinib = compound: C#Cc1cccc(Nc2ncnc3cc(OCCOC)c(OCCOC)cc23)c1 [erlotinib]
Outline: (§1)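 Values give the log-two fold change in thermal stability against solvent controls, from duplicates. Crude K562 extract at 1 mg/mL protein, made by dounce homogenisation in PBS pH 7.4 with 1 mM MgCl2, was treated with 10 μM compound for 30 min. After 3 min heating across 48°C-58°C, aliquots were pooled, adjusted to 0.5% NP-40 at 4°C and centrifuged at 21,000xg for 90 min. The supernatant was measured by TMTpro 16plex LC-MS/MS with channel sums equalised.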

By UniProt entry, the sequences of proteins in these tests, tags left out. Where a name states a change or a piece, a line headed by the entry shows the natural chain unless it says otherwise.
UniProt Q9BTA9: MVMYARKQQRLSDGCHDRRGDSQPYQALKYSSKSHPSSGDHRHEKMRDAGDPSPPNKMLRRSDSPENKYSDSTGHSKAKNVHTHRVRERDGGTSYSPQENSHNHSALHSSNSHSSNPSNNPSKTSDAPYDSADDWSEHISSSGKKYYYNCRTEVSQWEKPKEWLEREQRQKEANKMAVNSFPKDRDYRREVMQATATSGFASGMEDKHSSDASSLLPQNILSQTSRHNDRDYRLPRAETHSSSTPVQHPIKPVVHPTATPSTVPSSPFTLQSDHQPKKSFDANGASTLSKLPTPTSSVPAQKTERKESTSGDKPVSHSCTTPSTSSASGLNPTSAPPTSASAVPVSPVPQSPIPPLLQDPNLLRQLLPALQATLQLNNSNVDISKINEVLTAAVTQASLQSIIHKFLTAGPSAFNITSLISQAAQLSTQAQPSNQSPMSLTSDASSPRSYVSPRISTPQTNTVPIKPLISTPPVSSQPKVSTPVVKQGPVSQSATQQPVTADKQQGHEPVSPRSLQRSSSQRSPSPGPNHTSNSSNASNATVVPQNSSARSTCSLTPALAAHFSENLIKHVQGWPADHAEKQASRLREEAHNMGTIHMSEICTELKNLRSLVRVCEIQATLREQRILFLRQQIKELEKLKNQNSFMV
UniProt Q8N2E2: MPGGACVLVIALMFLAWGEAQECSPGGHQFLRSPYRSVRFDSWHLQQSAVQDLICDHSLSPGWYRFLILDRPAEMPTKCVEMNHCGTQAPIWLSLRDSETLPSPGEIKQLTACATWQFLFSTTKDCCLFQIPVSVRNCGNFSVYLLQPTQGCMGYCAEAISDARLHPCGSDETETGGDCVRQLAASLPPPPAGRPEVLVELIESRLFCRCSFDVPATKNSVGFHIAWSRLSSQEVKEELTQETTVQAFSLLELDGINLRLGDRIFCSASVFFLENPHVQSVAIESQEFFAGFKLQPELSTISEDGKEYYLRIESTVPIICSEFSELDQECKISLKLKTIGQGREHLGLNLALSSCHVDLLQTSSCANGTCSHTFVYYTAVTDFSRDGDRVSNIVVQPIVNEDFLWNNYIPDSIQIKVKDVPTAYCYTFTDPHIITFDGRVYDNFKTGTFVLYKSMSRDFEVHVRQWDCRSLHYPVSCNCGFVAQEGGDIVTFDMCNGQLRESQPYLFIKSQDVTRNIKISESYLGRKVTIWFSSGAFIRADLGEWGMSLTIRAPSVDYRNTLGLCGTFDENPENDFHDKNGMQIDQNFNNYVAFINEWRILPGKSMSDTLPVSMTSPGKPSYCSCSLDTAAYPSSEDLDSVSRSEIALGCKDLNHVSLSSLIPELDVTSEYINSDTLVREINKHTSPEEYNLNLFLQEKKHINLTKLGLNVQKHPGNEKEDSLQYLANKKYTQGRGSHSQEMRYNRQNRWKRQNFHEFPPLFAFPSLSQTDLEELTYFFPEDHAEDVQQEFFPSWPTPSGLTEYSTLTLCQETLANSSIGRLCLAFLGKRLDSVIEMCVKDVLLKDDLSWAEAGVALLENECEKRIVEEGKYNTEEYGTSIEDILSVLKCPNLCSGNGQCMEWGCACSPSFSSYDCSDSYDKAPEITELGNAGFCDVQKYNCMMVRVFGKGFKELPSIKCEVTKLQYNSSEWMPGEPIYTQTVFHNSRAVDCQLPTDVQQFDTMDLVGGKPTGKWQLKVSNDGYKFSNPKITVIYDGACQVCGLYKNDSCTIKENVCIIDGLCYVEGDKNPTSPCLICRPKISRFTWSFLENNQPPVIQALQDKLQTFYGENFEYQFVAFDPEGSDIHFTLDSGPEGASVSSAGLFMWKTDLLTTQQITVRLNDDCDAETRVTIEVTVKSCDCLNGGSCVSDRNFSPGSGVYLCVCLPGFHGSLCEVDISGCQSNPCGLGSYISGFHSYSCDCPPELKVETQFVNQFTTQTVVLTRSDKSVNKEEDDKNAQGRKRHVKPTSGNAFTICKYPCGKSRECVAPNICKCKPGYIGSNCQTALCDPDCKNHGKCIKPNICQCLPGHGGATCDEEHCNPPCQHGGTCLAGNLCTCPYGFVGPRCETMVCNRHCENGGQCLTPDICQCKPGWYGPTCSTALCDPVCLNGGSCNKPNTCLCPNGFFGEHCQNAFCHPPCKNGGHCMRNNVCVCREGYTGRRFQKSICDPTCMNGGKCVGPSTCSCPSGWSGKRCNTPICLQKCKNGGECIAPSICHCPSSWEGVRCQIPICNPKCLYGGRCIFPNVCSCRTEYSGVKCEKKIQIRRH
UniProt Q7Z7G8: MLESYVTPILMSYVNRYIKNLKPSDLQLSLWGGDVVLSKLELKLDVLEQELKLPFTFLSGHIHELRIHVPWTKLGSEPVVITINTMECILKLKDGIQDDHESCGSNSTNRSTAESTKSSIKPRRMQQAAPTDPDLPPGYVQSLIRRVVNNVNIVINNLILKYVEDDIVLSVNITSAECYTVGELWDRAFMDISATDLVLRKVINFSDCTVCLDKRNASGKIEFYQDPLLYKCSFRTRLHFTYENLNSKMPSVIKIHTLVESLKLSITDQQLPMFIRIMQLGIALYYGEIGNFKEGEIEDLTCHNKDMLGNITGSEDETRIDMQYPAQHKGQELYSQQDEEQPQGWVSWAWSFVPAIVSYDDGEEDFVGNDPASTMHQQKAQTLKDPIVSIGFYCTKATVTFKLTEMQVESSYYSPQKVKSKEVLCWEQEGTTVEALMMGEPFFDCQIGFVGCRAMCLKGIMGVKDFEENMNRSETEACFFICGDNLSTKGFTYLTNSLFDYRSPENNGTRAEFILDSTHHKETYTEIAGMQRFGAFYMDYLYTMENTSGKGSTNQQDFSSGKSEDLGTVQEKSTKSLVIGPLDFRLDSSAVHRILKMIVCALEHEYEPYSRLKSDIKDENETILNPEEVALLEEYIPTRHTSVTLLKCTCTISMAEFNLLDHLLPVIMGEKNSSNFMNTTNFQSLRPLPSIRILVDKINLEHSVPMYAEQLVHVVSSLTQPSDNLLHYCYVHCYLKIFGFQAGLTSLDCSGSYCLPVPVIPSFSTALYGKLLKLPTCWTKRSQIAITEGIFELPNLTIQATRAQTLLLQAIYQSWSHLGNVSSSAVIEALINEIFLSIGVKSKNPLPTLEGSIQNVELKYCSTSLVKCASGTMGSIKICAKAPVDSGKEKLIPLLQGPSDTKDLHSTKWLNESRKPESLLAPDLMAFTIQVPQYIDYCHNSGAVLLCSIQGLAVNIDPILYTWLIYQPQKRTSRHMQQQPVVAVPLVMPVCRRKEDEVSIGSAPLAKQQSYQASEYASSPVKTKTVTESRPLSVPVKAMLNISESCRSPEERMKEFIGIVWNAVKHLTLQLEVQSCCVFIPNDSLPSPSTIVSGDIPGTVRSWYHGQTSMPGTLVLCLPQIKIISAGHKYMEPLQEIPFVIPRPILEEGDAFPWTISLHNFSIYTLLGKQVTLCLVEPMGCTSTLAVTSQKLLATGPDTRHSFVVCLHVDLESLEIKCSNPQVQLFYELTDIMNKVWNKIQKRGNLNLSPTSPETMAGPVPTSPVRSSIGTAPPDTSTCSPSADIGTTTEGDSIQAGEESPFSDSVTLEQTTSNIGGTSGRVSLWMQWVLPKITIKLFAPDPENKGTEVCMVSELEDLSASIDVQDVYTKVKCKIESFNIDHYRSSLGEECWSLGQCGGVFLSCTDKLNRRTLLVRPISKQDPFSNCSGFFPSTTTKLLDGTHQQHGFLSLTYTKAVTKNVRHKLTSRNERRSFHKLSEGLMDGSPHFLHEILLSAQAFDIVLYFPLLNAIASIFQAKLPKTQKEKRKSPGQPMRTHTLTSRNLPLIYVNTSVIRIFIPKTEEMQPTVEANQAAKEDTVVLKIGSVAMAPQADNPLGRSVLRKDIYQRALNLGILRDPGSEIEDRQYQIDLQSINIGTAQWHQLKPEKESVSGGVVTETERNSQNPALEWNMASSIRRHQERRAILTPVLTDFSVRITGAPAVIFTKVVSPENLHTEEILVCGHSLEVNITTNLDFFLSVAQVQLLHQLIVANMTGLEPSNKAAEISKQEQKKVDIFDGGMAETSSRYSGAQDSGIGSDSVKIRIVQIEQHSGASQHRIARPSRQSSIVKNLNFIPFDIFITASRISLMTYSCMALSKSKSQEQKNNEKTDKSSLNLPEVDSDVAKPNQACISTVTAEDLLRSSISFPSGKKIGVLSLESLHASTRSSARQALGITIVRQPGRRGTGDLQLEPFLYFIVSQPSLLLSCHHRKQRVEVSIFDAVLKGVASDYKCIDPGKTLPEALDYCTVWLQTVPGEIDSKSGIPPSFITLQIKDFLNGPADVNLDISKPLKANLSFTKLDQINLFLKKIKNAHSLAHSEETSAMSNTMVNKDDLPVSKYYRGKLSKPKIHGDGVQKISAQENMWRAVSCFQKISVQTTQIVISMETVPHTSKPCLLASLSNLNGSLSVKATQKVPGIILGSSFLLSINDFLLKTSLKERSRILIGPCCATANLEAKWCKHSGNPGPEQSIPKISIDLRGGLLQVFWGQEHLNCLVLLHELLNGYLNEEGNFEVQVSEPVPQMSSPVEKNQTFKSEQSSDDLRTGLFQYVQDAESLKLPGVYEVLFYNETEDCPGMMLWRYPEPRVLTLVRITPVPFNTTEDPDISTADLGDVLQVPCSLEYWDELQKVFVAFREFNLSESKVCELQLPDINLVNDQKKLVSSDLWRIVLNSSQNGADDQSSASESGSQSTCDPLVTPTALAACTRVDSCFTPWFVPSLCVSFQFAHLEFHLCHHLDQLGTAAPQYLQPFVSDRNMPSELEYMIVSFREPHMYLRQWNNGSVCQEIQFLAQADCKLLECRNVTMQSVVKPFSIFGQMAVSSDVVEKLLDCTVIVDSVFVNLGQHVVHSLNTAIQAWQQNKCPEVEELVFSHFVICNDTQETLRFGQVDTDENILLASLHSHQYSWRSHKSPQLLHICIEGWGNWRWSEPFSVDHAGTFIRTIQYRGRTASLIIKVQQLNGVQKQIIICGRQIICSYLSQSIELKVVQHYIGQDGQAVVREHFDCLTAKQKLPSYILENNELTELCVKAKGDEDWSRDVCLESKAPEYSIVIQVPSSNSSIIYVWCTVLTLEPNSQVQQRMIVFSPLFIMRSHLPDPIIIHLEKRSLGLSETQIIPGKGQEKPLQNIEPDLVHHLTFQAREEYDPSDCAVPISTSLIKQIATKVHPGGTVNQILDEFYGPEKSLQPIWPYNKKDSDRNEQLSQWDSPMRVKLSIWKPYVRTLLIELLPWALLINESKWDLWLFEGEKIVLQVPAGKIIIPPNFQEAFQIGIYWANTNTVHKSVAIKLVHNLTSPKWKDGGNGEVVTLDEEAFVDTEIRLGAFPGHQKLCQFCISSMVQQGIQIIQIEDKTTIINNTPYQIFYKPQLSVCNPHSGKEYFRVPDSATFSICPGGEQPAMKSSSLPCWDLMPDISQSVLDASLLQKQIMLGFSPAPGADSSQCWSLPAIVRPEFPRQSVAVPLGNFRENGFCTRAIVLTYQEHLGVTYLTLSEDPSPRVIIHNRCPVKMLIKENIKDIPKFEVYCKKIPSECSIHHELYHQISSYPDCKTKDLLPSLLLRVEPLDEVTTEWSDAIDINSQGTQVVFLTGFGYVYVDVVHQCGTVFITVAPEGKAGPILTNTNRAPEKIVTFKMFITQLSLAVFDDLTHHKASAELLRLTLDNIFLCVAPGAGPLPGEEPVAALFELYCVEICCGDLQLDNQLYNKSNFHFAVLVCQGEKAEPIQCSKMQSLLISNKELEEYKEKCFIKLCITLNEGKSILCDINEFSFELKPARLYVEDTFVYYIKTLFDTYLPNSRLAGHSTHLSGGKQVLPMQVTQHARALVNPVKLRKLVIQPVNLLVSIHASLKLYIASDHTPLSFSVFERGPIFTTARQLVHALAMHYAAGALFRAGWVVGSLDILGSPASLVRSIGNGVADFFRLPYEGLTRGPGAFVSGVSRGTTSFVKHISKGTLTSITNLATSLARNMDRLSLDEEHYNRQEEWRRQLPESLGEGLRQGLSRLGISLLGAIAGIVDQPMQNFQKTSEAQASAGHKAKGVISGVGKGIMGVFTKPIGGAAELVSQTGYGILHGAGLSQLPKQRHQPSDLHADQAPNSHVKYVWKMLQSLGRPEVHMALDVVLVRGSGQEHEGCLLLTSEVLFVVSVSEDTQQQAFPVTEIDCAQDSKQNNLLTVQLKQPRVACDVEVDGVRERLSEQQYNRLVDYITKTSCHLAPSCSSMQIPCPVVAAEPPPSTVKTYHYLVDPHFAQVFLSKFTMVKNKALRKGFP

[1] = compound: C/C(=N\NC(=O)C1=CC(=CC=C1)S(=O)(=O)N2CCOCC2)/C3=C(C=CC(=C3)Cl)O
Outline: as §1

[2] = compound: C1=CC(=CC=C1C2=NC3=C(N2)C=C(C=C3)C(=O)N)OC4=CC=C(C=C4)Cl
Outline: as §1

[3] = compound: C1=CC2=C(C=CC(=C2)/C=C\3/C(=O)NC(=NCC4=CC=CS4)S3)N=C1
Outline: as §1

[4] = compound: C1=CC2=NC=CN=C2C=C1/C=C/3\C(=O)NC(=O)S3
Outline: as §1

[5] = compound: C1=CC=C(C=C1)C2=NC(=C(N2)C3=CC=NC=C3)C4=CC(=C(C=C4)Cl)O
Outline: as §1

[6] = compound: C1=CC=C2C(=C1)C3=NNC4=CC=CC(=C43)C2=O
Outline: as §1

[7] = compound: C1CCN(C1)C(=O)NC2=CC=CC(=C2)NC3=NC=C(C(=N3)NCCC4=CN=CN4)Br
Outline: as §1

[8] = compound: C1CN(CCC1(CC2=CC=C(C=C2)Cl)N)C3=NC=NC4=C3C=CN4
Outline: as §1

IRAK-1-4 Inhibitor I = compound: C1COCCN1CCN2C3=CC=CC=C3N=C2NC(=O)C4=CC(=CC=C4)[N+](=O)[O-] [IRAK-1-4 Inhibitor I]
Outline: as §1

ibrutinib = compound: C=CC(=O)N1CCC[C@@H](n2nc(-c3ccc(Oc4ccccc4)cc3)c3c(N)ncnc32)C1 [ibrutinib]
Outline: as §1

[9] = compound: CC(=O)c1cnc2ccc(-c3cc(Cl)c(O)c(Cl)c3)nc2c1N[C@H]1CC[C@H](CN(C)C)CC1
Outline: as §1

ralimetinib = compound: CC(C)(C)Cn1c(N)nc2ccc(-c3[nH]c(C(C)(C)C)nc3-c3ccc(F)cc3)nc21 [ralimetinib]
Outline: as §1

[10] = compound: CC(C)(O)CC(=O)NCCn1ccc2ncnc(Nc3ccc(Oc4cccc(C(F)(F)F)c4)c(Cl)c3)c21
Outline: as §1

[11] = compound: CC(C)C1=C2N=C(C=C(N2N=C1)NCC3=CC=CC=C3)NCCCCCCN
Outline: as §1

[12] = compound: CC1=C(C(CC(=O)N1)C2=CC=C(C=C2)C(F)(F)F)C(=O)NC3=C(C=C4C(=C3)C=NN4)F
Outline: as §1

[13] = compound: CC1=C(C2=C(C=C1)C(=O)C3=CC=CC=C3N2CCCN)C
Outline: as §1

[14] = compound: CC1=C(C=C(C=C1)NC(=O)C2=CC(=CC=C2)C(C)(C)C#N)NC3=CC4=C(C=C3)N=CN(C4=O)C
Outline: as §1

[15] = compound: CC1=C(C=C(C=C1)NC(=O)C2=CC(=CC=C2)N(C)C)NC(=O)C3=CC=C(C=C3)O
Outline: as §1

[16] = compound: CC1=CC=C(C=C1)SC2=C3C=C(SC3=CN=C2)C(=O)N
Outline: as §1

Measured: log2 fold change

WDR62 isoform 4 (UniProt O43379)
inactive: erlotinib 0.017 | [1] -0.027 | [2] -0.018 | [3] -0.007 | [4] -0.012 | [5] 0.017 | [6] -0.052 | [7] 0.024 | [8] -0.008 | IRAK-1-4 Inhibitor I 0.011 | ibrutinib -0.023 | [9] 0.027 | ralimetinib 0.013 | [10] -0.051 | [11] -0.007 | [12] 0.033 | [13] -0.016 | [14] 0.023 | [15] -0.002 | [16] -0.029

WDR47 (UniProt O94967)
inactive: erlotinib 0.003 | [1] 0.04 | [2] 0.023 | [3] -0.039 | [4] 0.039 | [5] 0.074 | [6] 0.015 | [7] 0.046 | [8] 0.064 | IRAK-1-4 Inhibitor I -0.034 | ibrutinib 0.169 | [9] 0.02 | ralimetinib 0.006 | [10] 0.035 | [11] 0.027 | [12] 0.093 | [13] -0.009 | [14] 0.033 | [15] -0.017 | [16] 0.049

WAC (UniProt Q9BTA9)
inactive: erlotinib 0.027 | [1] 0.004 | [2] 0.027 | [3] 0.092 | [4] -0.064 | [5] 0.008 | [6] -0.076 | [7] 0.051 | [8] 0.015 | IRAK-1-4 Inhibitor I -0.006 | ibrutinib -0.062 | [9] -0.008 | ralimetinib -0.012 | [10] -0.054 | [11] -0.009 | [12] 0.046 | [13] 0.034 | [14] -0.016 | [15] 0.022 | [16] 0.004

VPS45 (UniProt Q9NRW7)
inactive: erlotinib -0.005 | [1] 0.385 | [2] 0.034 | [3] 0.022 | [4] -0.033 | [5] -0.011 | [6] -0.018 | [7] 0.008 | [8] -0.057 | IRAK-1-4 Inhibitor I -0.022 | ibrutinib 0.07 | [9] 0.017 | ralimetinib 0.039 | [10] -0.006 | [11] 0.022 | [12] -0.015 | [13] -0.026 | [14] -0.012 | [15] 0.016 | [16] -0.006

VPS37C (UniProt A5D8V6)
inactive: erlotinib -0.06 | [1] -0.012 | [2] -0.024 | [3] 0.084 | [4] -0.056 | [5] -0.063 | [6] 0 | [7] -0.059 | [8] 0.068 | IRAK-1-4 Inhibitor I 0.083 | ibrutinib -0.029 | [9] 0.002 | ralimetinib -0.068 | [10] -0.063 | [11] 0.006 | [12] -0.014 | [13] -0.069 | [14] -0.077 | [15] 0.007 | [16] -0.01

VPS33A (UniProt Q96AX1)
inactive: erlotinib 0.024 | [1] 0.005 | [2] 0.024 | [3] 0.035 | [4] 0.018 | [5] -0.006 | [6] -0.023 | [7] -0.025 | [8] 0.036 | IRAK-1-4 Inhibitor I 0.015 | ibrutinib 0.024 | [9] -0.01 | ralimetinib 0.039 | [10] 0.005 | [11] -0.003 | [12] 0.008 | [13] 0.013 | [14] 0.013 | [15] 0.043 | [16] -0.032

WWC2 isoform 6 (UniProt Q6AWC2)
inactive: erlotinib -0.061 | [1] -0.111 | [2] 0.032 | [3] -0.003 | [4] -0.025 | [5] -0.026 | [6] -0.061 | [7] 0.032 | [8] 0.046 | IRAK-1-4 Inhibitor I -0.029 | ibrutinib -0.079 | [9] 0.002 | ralimetinib 0.068 | [10] 0.028 | [11] 0.026 | [12] -0.022 | [13] -0.024 | [14] -0.017 | [15] -0.029 | [16] -0.046

VPS35 (UniProt Q96QK1)
inactive: erlotinib -0.016 | [1] 0.028 | [2] 0.008 | [3] 0.005 | [4] 0.002 | [5] 0.03 | [6] -0.008 | [7] -0.003 | [8] 0.017 | IRAK-1-4 Inhibitor I 0.003 | ibrutinib -0.005 | [9] -0.008 | ralimetinib -0.009 | [10] -0.018 | [11] -0.022 | [12] -0.019 | [13] 0.006 | [14] 0.02 | [15] 0.011 | [16] 0.009

WEE1 (UniProt P30291)
inactive: erlotinib 0.079 | [1] -0.014 | [2] -0.091 | [3] -0.051 | [4] 0.019 | [5] 0.01 | [6] -0.006 | [7] -0.07 | [8] 0.021 | IRAK-1-4 Inhibitor I 0.056 | ibrutinib -0.028 | [9] 0.139 | ralimetinib -0.017 | [10] -0.062 | [11] -0.031 | [12] -0.032 | [13] -0.012 | [14] 0.023 | [15] -0.105 | [16] -0.038

WWP2 (UniProt O00308)
inactive: erlotinib -0.059 | [1] 0.828 | [2] 0.026 | [3] 0.03 | [4] -0.014 | [5] 0.031 | [6] 0.063 | [7] -0.091 | [8] 0.041 | IRAK-1-4 Inhibitor I 0.03 | ibrutinib -0.011 | [9] 0.095 | ralimetinib -0.032 | [10] -0.083 | [11] 0.045 | [12] 0.065 | [13] -0.039 | [14] -0.038 | [15] 0.096 | [16] 0.076

VWDE (UniProt Q8N2E2)
inactive: erlotinib 0.104 | [1] 0.001 | [2] 0.031 | [3] -0.002 | [4] -0.038 | [5] -0.013 | [6] -0.048 | [7] -0.048 | [8] 0.027 | IRAK-1-4 Inhibitor I 0.02 | ibrutinib 0.001 | [9] -0.059 | ralimetinib 0.044 | [10] -0.036 | [11] -0.046 | [12] -0.003 | [13] 0.017 | [14] 0.032 | [15] 0.027 | [16] -0.074

2 records picked at random from the list so far, as already listed:
VPS33A (UniProt Q96AX1)
inactive: erlotinib 0.024 | [1] 0.005 | [2] 0.024 | [3] 0.035 | [4] 0.018 | [5] -0.006 | [6] -0.023 | [7] -0.025 | [8] 0.036 | IRAK-1-4 Inhibitor I 0.015 | ibrutinib 0.024 | [9] -0.01 | ralimetinib 0.039 | [10] 0.005 | [11] -0.003 | [12] 0.008 | [13] 0.013 | [14] 0.013 | [15] 0.043 | [16] -0.032

WDR62 isoform 4 (UniProt O43379)
inactive: erlotinib 0.017 | [1] -0.027 | [2] -0.018 | [3] -0.007 | [4] -0.012 | [5] 0.017 | [6] -0.052 | [7] 0.024 | [8] -0.008 | IRAK-1-4 Inhibitor I 0.011 | ibrutinib -0.023 | [9] 0.027 | ralimetinib 0.013 | [10] -0.051 | [11] -0.007 | [12] 0.033 | [13] -0.016 | [14] 0.023 | [15] -0.002 | [16] -0.029

Additional records.

VPS52 (UniProt Q8N1B4)
inactive: erlotinib -0.029 | [1] 0.031 | [2] -0.04 | [3] 0.046 | [4] 0.005 | [5] -0.016 | [6] -0.028 | [7] -0.034 | [8] 0.024 | IRAK-1-4 Inhibitor I -0.025 | ibrutinib -0.066 | [9] -0.01 | ralimetinib 0.038 | [10] -0.029 | [11] -0.003 | [12] 0.038 | [13] 0.034 | [14] -0.017 | [15] -0.002 | [16] -0.012

VRK3 (UniProt Q8IV63)
inactive: erlotinib 0.004 | [1] -0.019 | [2] -0.006 | [3] 0.063 | [4] 0.021 | [5] -0.008 | [6] 0.014 | [7] -0.024 | [8] -0.007 | IRAK-1-4 Inhibitor I -0.021 | ibrutinib 0.031 | [9] -0.045 | ralimetinib 0.009 | [10] -0.014 | [11] -0.025 | [12] 0.006 | [13] -0.04 | [14] -0.031 | [15] 0.023 | [16] 0.168

VPS13B (UniProt Q7Z7G8)
inactive: erlotinib 0.109 | [1] 0.056 | [2] -0.056 | [3] 0.067 | [4] 0.106 | [5] -0.066 | [6] -0.137 | [7] -0.115 | [8] 0.027 | IRAK-1-4 Inhibitor I -0.076 | ibrutinib -0.052 | [9] 0.056 | ralimetinib 0.083 | [10] 0.036 | [11] -0.183 | [12] -0.009 | [13] 0.041 | [14] 0.056 | [15] -0.02 | [16] -0.038

WDR89 (UniProt Q96FK6)
inactive: erlotinib 0.05 | [1] -0.019 | [2] -0.009 | [3] -0.059 | [4] -0.116 | [5] -0.032 | [6] 0.072 | [7] 0.048 | [8] -0.025 | IRAK-1-4 Inhibitor I 0.012 | ibrutinib 0.024 | [9] 0 | ralimetinib 0.037 | [10] -0.06 | [11] -0.044 | [12] 0.049 | [13] -0.007 | [14] 0.06 | [15] 0.007 | [16] -0.028

WDR26, A0A499FIZ0
inactive: erlotinib -0.004 | [1] 0.055 | [2] 0 | [3] -0.008 | [4] 0.014 | [5] -0.015 | [6] 0.02 | [7] -0.003 | [8] -0.006 | IRAK-1-4 Inhibitor I -0.023 | ibrutinib -0.024 | [9] -0.004 | ralimetinib 0.019 | [10] -0.021 | [11] -0.03 | [12] -0.002 | [13] 0.003 | [14] 0 | [15] 0.013 | [16] 0.007
